Numbering of substitutions follows the chain as printed. These are yes or no findings as the source states them, for the method shown. In cells and extracts the contact can be indirect. Some entries that bind do so weakly or less than the wild type. Tags and fused reporters may be left off the sequences shown.
Experiments:
[1] = biological target: T1, Pbp1-FLAG (poly(A)-binding protein-binding protein 1, C-terminal Flag tag) (S. cerevisiae) (UniProt P53297); assay: co-IP; Flag immunoprecipitation of Pbp1-Flag or Puf3-Flag from yeast grown in YPD or switched to YPL for 3 h; beads treated with or without RNase If for 15 min
T1 sequence: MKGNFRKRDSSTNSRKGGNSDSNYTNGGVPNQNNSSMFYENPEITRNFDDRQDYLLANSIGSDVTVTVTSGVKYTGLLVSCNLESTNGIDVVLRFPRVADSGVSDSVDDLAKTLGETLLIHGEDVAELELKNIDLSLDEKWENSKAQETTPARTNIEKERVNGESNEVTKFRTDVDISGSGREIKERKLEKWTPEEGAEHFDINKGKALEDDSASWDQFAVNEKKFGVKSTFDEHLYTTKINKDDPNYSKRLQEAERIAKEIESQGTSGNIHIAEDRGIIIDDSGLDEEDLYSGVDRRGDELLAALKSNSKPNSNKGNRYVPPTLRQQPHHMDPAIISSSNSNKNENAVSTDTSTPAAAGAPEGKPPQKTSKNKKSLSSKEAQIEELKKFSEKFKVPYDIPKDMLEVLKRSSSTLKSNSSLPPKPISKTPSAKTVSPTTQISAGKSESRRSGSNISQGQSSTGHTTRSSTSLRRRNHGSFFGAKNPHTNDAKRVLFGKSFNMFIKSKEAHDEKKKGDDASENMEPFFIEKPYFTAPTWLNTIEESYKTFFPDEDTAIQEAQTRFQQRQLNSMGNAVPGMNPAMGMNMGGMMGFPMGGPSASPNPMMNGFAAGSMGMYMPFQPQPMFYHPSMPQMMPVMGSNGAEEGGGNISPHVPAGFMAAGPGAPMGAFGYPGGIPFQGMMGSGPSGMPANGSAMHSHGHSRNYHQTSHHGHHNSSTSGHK

[2] = biological target: T2, Pbp1 M8Y (eight methionines of the LCD mutated to tyrosine), epitope-tagged (S. cerevisiae) (UniProt P53297); assay: co-IP; anti-Flag M2 on Dynabeads Protein G added to cleared yeast lysates, 1–2 h at 4°C; lysis buffer 50 mM HEPES pH 7.5, 150 mM NaCl, 10 mM MgCl2, NP-40; wash 50 mM HEPES pH 7.5, 150 mM NaCl, 1 mM EDTA, 0.2% NP-40; HA blot; cells grown in YPD and switched to YPL (time points, mostly 3 h)
T2 sequence: T1 sequence with M591Y, M595Y, M605Y, M606Y, M614Y, M616Y, M618Y, M625Y

[3] = biological target: T1, Pbp1-FLAG (poly(A)-binding protein-binding protein 1, C-terminal Flag tag) (S. cerevisiae); assay: as above
[4] = biological target: T3, Pbp1 M8S (eight methionines of the LCD mutated to serine), epitope-tagged (S. cerevisiae) (UniProt P53297); assay: as above
T3 sequence: T1 sequence with M591S, M595S, M605S, M606S, M614S, M616S, M618S, M625S

[5] = biological target: T4, Pbp1 M8F (eight methionines of the LCD mutated to phenylalanine), epitope-tagged (S. cerevisiae) (UniProt P53297); assay: as above
T4 sequence: T1 sequence with M591F, M595F, M605F, M606F, M614F, M616F, M618F, M625F

Measured: binding

B1: Puf3-HA (C-terminal HA tag) (protein, UniProt Q07807 1-879)
chain: MEMNMDMDMDMELASIVSSLSALSHSNNNGGQAAAAGIVNGGAAGSQQIGGFRRSSFTTANEVDSEILLLHGSSESSPIFKKTALSVGTAPPFSTNSKKFFGNGGNYYQYRSTDTASLSSASYNNYHTHHTAANLGKNNKVNHLLGQYSASIAGPVYYNGNDNNNSGGEGFFEKFGKSLIDGTRELESQDRPDAVNTQSQFISKSVSNASLDTQNTFEQNVESDKNFNKLNRNTTNSGSLYHSSSNSGSSASLESENAHYPKRNIWNVANTPVFRPSNNPAAVGATNVALPNQQDGPANNNFPPYMNGFPPNQFHQGPHYQNFPNYLIGSPSNFISQMISVQIPANEDTEDSNGKKKKKANRPSSVSSPSSPPNNSPFPFAYPNPMMFMPPPPLSAPQQQQQQQQQQQQEDQQQQQQQENPYIYYPTPNPIPVKMPKDEKTFKKRNNKNHPANNSNNANKQANPYLENSIPTKNTSKKNASSKSNESTANNHKSHSHSHPHSQSLQQQQQTYHRSPLLEQLRNSSSDKNSNSNMSLKDIFGHSLEFCKDQHGSRFIQRELATSPASEKEVIFNEIRDDAIELSNDVFGNYVIQKFFEFGSKIQKNTLVDQFKGNMKQLSLQMYACRVIQKALEYIDSNQRIELVLELSDSVLQMIKDQNGNHVIQKAIETIPIEKLPFILSSLTGHIYHLSTHSYGCRVIQRLLEFGSSEDQESILNELKDFIPYLIQDQYGNYVIQYVLQQDQFTNKEMVDIKQEIIETVANNVVEYSKHKFASNVVEKSILYGSKNQKDLIISKILPRDKNHALNLEDDSPMILMIKDQFANYVIQKLVNVSEGEGKKLIVIAIRAYLDKLNKSNSLGNRHLASVEKLAALVENAEV
binds: all assays above
